PubChem BioAssay AID1159578 | Peter MacCallum Cancer Centre, 2015

Test: 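siRNA pools altering how lymphatic endothelial cells close a scratch wound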 (primary screen)
System: human lymphatic endothelial cells
Reagents: siRNA pool against human genes, 40 nM
Time to read-out: 48 h after transfection
Read-out: 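Cells stained with dye and imaged after a scratch; covered wound area and nuclei counted, duplicates averaged, migration set against mock wells and turned into a robust z-score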
Direction: migration robust z-score: higher = faster migration into the scratch; migration relative to mock: higher = more scratch area covered than mock; nuclei per well: higher = more cells in the well
Hit rule: 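Migration changed when robust z exceeds 2 or falls below -2 and mean nuclei number is at least 3300; otherwise not called changed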
Meaning of the calls: active = migration changed; inactive = no migration change, or too few cells
The whole screen tested about 18,000 reagents; this is an unselected part. In the full data, about 1,030 (5.7%) got an active call. 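Inactive calls also include pools with fewer than 3300 nuclei, whose migration was not assessed.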 The raw values are shown without normalisation. Entries without a mark were called inactive. Reagent sequences are not shown.

gene	migration robust z-score	migration class with cell-count check	migration relative to mock	nuclei per well, duplicate mean
TOGARAM1 (TOG array regulator of axonemal microtubules 1)	1.44	migration z between -2 and 2; enough cells	1.26	6132
DPF1 (double PHD fingers 1)	1.02	migration z between -2 and 2; enough cells	1	4902
POLR3D (RNA polymerase III subunit D)	1.14	migration z between -2 and 2; enough cells	1.18	5986
PRPS1 (phosphoribosyl pyrophosphate synthetase 1)	-0.57	migration z between -2 and 2; enough cells	0.7	4324
ZBTB44 (zinc finger and BTB domain containing 44)	-0.02	migration z between -2 and 2; enough cells	0.88	6486
ZNF747 (zinc finger protein 747)	0.97	migration z between -2 and 2; enough cells	1.14	4384
TFAP4 (transcription factor AP-4)	-0.57	under 3300 nuclei; migration not judged	0.7	2700
SPMIP8 (sperm microtubule inner protein 8)	1.23	migration z between -2 and 2; enough cells	1.21	6956
EIF2S3 (eukaryotic translation initiation factor 2 subunit gamma)	-0.46	migration z between -2 and 2; enough cells	0.76	7582
SHKBP1 (SH3KBP1 binding protein 1)	1.51	migration z between -2 and 2; enough cells	1.28	5811
DDX31 (DEAD-box helicase 31)	0.78	migration z between -2 and 2; enough cells	0.96	5198
ZNF644 (zinc finger protein 644)	-0.04	migration z between -2 and 2; enough cells	0.87	3502
CSNK2A1 (casein kinase 2 alpha 1)	1.35	migration z between -2 and 2; enough cells	1.06	4894
PIGL (phosphatidylinositol glycan anchor biosynthesis class L)	-0.42	migration z between -2 and 2; enough cells	0.73	4295
ARL2 (ARF like GTPase 2)	0.06	migration z between -2 and 2; enough cells	0.82	5404
DYNLT1 (dynein light chain Tctex-type 1)	0.84	migration z between -2 and 2; enough cells	1.1	7196
CFDP1 (chromatin remodeling protein CFDP1)	0.4	migration z between -2 and 2; enough cells	0.99	4933
MUCL1 (mucin like 1)	0.12	migration z between -2 and 2; enough cells	0.92	5826
SLCO4A1	0.57	migration z between -2 and 2; enough cells	0.92	6472
ADH1A (alcohol dehydrogenase 1A (class I), alpha polypeptide)	0.44	migration z between -2 and 2; enough cells	0.89	4961
FHIT (fragile histidine triad diadenosine triphosphatase)	-0.36	migration z between -2 and 2; enough cells	0.74	4751
PJA2 (praja ring finger ubiquitin ligase 2)	-0.42	migration z between -2 and 2; enough cells	0.72	6524
OR2C3 (olfactory receptor family 2 subfamily C member 3)	-2.25 (active)	migration z below -2; enough cells	0.3	3340
FOXF2 (forkhead box F2)	-0.01	migration z between -2 and 2; enough cells	0.88	5820
PLAC8L1 (PLAC8 like 1)	-1.52	migration z between -2 and 2; enough cells	0.49	6271
PTP4A2 (protein tyrosine phosphatase 4A2)	-1.29	migration z between -2 and 2; enough cells	0.55	4628
NPTX2 (neuronal pentraxin 2)	0.62	migration z between -2 and 2; enough cells	1.04	5746
IRAG1 (inositol 1,4,5-triphosphate receptor associated 1)	-0.4	migration z between -2 and 2; enough cells	0.78	6414
OSBPL5 (oxysterol binding protein like 5)	-0.3	migration z between -2 and 2; enough cells	0.81	6012

Ordered by “migration robust z-score” (descending): 6 of the entries above
gene	migration robust z-score	migration class with cell-count check	migration relative to mock	nuclei per well, duplicate mean
DYNLT1 (dynein light chain Tctex-type 1)	0.84	migration z between -2 and 2; enough cells	1.1	7196
SLCO4A1	0.57	migration z between -2 and 2; enough cells	0.92	6472
CFDP1 (chromatin remodeling protein CFDP1)	0.4	migration z between -2 and 2; enough cells	0.99	4933
MUCL1 (mucin like 1)	0.12	migration z between -2 and 2; enough cells	0.92	5826
ARL2 (ARF like GTPase 2)	0.06	migration z between -2 and 2; enough cells	0.82	5404
PIGL (phosphatidylinositol glycan anchor biosynthesis class L)	-0.42	migration z between -2 and 2; enough cells	0.73	4295

More records follow:
gene	migration robust z-score	migration class with cell-count check	migration relative to mock	nuclei per well, duplicate mean
ESYT2 (extended synaptotagmin 2)	-0.25	migration z between -2 and 2; enough cells	0.82	6830
SGMS1 (sphingomyelin synthase 1)	0.31	migration z between -2 and 2; enough cells	0.86	5554
CEP76 (centrosomal protein 76)	1.49	migration z between -2 and 2; enough cells	1.27	5614
COL5A3 (collagen type V alpha 3 chain)	1.01	migration z between -2 and 2; enough cells	1.15	6836
UNC79 (unc-79 subunit of NALCN channel complex)	-0.5	migration z between -2 and 2; enough cells	0.76	5298
RFX6 (regulatory factor X6)	1.34	migration z between -2 and 2; enough cells	1.23	6551
HSPH1 (heat shock protein family H (Hsp110) member 1)	-0.53	migration z between -2 and 2; enough cells	0.74	6286
SMC4 (structural maintenance of chromosomes 4)	0.57	migration z between -2 and 2; enough cells	0.92	3926
TSC2 (TSC complex subunit 2)	-0.78	migration z between -2 and 2; enough cells	0.66	4010
SAP18 (Sin3A associated protein 18)	-1.77	migration z between -2 and 2; enough cells	0.46	6269
RRAGC (Ras related GTP binding C)	0.6	migration z between -2 and 2; enough cells	1.04	6355
MSI2 (musashi RNA binding protein 2)	-0.11	migration z between -2 and 2; enough cells	0.86	4935
YME1L1 (YME1 like 1 ATPase)	0.55	migration z between -2 and 2; enough cells	0.91	5879
ATP6V1F (ATPase H+ transporting V1 subunit F)	-1.27	migration z between -2 and 2; enough cells	0.56	5744
ACOT9 (acyl-CoA thioesterase 9)	2.25 (active)	migration z above 2; enough cells	1.24	5866
DDX4 (DEAD-box helicase 4)	-0.7	migration z between -2 and 2; enough cells	0.67	5608
DIO3 (iodothyronine deiodinase 3)	-0.88	migration z between -2 and 2; enough cells	0.64	6750
TFPI2 (tissue factor pathway inhibitor 2)	-1.03	migration z between -2 and 2; enough cells	0.6	6388
ZNF555 (zinc finger protein 555)	0.29	migration z between -2 and 2; enough cells	0.96	5306
RRAGA (Ras related GTP binding A)	-1.17	migration z between -2 and 2; enough cells	0.58	5926
LMTK2 (lemur tail kinase 2)	-1.4	migration z between -2 and 2; enough cells	0.54	4702
ME2 (malic enzyme 2)	0.96	migration z between -2 and 2; enough cells	0.99	6438
WFIKKN1	0.41	migration z between -2 and 2; enough cells	0.99	6030
C1orf35 (chromosome 1 open reading frame 35)	-0.39	migration z between -2 and 2; enough cells	0.78	5274
PEDS1 (plasmanylethanolamine desaturase 1)	0.79	migration z between -2 and 2; enough cells	1.09	5748
PASK (PAS domain containing serine/threonine kinase)	1.64	migration z between -2 and 2; enough cells	1.12	4532
SPTY2D1 (SPT2 chromatin protein domain containing 1)	-0.74	migration z between -2 and 2; enough cells	0.69	5771
GALNT7 (polypeptide N-acetylgalactosaminyltransferase 7)	-1.01	migration z between -2 and 2; enough cells	0.61	5558
ASMTL (acetylserotonin O-methyltransferase like)	-5.74	under 3300 nuclei; migration not judged	-0.3	2494
BPNT2 (3'(2'), 5'-bisphosphate nucleotidase 2)	-1.48	migration z between -2 and 2; enough cells	0.52	5948
KIF3C (kinesin family member 3C)	0.6	migration z between -2 and 2; enough cells	0.92	5198
CTSF (cathepsin F)	-0.91	migration z between -2 and 2; enough cells	0.63	5223
TRIM56 (tripartite motif containing 56)	0.7	migration z between -2 and 2; enough cells	0.94	5593
GAL3ST3 (galactose-3-O-sulfotransferase 3)	-0.18	migration z between -2 and 2; enough cells	0.77	4970
UPF2 (UPF2 regulator of nonsense mediated mRNA decay)	0.02	migration z between -2 and 2; enough cells	0.89	5582
TEX35 (testis expressed 35)	-0.7	migration z between -2 and 2; enough cells	0.7	5977
BCL2L2 (BCL2 like 2)	-0.08	migration z between -2 and 2; enough cells	0.79	4964
HAS1 (hyaluronan synthase 1)	-1.3	migration z between -2 and 2; enough cells	0.55	4772
TAOK2 (TAO kinase 2)	-0.6	migration z between -2 and 2; enough cells	0.69	4190
RBM34 (RNA binding motif protein 34)	-1.03	migration z between -2 and 2; enough cells	0.61	6682
PLA2G5 (phospholipase A2 group V)	0.52	migration z between -2 and 2; enough cells	0.9	3835
SUPT6H	-0.32	migration z between -2 and 2; enough cells	0.74	6284
ACVR2B (activin A receptor type 2B)	-0.26	migration z between -2 and 2; enough cells	0.76	4989
LRP1B (LDL receptor related protein 1B)	-0.88	migration z between -2 and 2; enough cells	0.64	6603
